Data on one molecule can be found in PMC5451165.

By UniProt entry, the sequences of proteins in these tests, tags left out.
UniProt P62993: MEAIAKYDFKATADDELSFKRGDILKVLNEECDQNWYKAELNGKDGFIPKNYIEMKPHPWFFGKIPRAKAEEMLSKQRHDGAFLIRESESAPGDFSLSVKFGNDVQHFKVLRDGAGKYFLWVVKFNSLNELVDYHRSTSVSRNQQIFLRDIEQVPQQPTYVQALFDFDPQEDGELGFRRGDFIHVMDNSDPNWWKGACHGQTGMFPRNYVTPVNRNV

The target of this assay is Growth factor receptor bound protein 2 (Grb2), endogenous in SHSY-5Y cells (human (endogenous in SHSY-5Y)) (UniProt P62993). Description: co-IP; IP for Grb2 from cell lysate, blot with anti-NOX4 (reverse: IP for NOX4, blot with anti-Grb2); cells under control (GFP, DMSO, DsRed), AD-inducing (AICD, Aβ, DsRed), reversal (AICD, Aβ, Grb2-DsRed) and Grb2 knock-down (U6-Grb2) conditions.

These are yes or no findings as the source states them, for the method shown. Binding seen in cells or lysates may run through a third protein. Some results given as binding are weak or reduced against the parent protein; the word gives no strength.

B1: NOX4, endogenous in SHSY-5Y cells (protein, UniProt Q9NPH5 1-578)
chain: MAVSWRSWLANEGVKHLCLFIWLSMNVLLFWKTFLLYNQGPEYHYLHQMLGLGLCLSRASASVLNLNCSLILLPMCRTLLAYLRGSQKVPSRRTRRLLDKSRTFHITCGVTICIFSGVHVAAHLVNALNFSVNYSEDFVELNAARYRDEDPRKLLFTTVPGLTGVCMVVVLFLMITASTYAIRVSNYDIFWYTHNLFFVFYMLLTLHVSGGLLKYQTNLDTHPPGCISLNRTSSQNISLPEYFSEHFHEPFPEGFSKPAEFTQHKFVKICMEEPRFQANFPQTWLWISGPLCLYCAERLYRYIRSNKPVTIISVMSHPSDVMEIRMVKENFKARPGQYITLHCPSVSALENHPFTLTMCPTETKATFGVHLKIVGDWTERFRDLLLPPSSQDSEILPFIQSRNYPKLYIDGPFGSPFEESLNYEVSLCVAGGIGVTPFASILNTLLDDWKPYKLRRLYFIWVCRDIQSFRWFADLLCMLHNKFWQENRPDYVNIQLYLSQTDGIQKIIGEKYHALNSRLFIGRPRWKLLFDEIAKYNRGKTVGVFCCGPNSLSKTLHKLSNQNNSYGTRFEYNKESFS
As to B1, the binding entry is “binds”.
